Values quoted from earlier work as cited in patent publication US12122760B2, “Compound, composition, and use thereof in preparation of drug” (CHANGSHA ZEDA MEDICAL TECH. CO., LTD, priority 2019, dated 2024).
pIC50: −log10 of the molar value. Some results were stated once for a whole list of compounds, not compound by compound. At least one compound was matched to its structure with a doubt left.

Experiments:
[1] = tested on: triple-negative breast cancer; settings: background statement; cited from earlier work
[2] = tested on: prostate cancer cells; settings: cell biology experiments, background statement; read-out: IC50, ability to directly kill prostate cancer cells; cited from earlier work

SMILES: CNC(=O)c1ccc(N2C(=S)N(c3cnc(C#N)c(C(F)(F)F)c3)C(=O)C23CCC3)cc1F [Apalutamide]
- total effective rate to triple-negative breast cancer [1]: less than 50%
- pIC50 [2]: < 5.00

SMILES: CC(O)(CS(=O)(=O)c1ccc(F)cc1)C(=O)Nc1ccc(C#N)c(C(F)(F)F)c1 (centres unmarked) [Bicalutamide]
- total effective rate to triple-negative breast cancer [1]: less than 50%
- pIC50 [2]: < 5.00

SMILES: CNC(=O)c1ccc(N2C(=S)N(c3ccc(C#N)c(C(F)(F)F)c3)C(=O)C2(C)C)cc1F [Enzalutamide]
- total effective rate to triple-negative breast cancer [1]: less than 50%
